# From the supplement of paper PMC10338343
# ± gives the standard deviation. The entries are a selection whose mix differs from that of the whole data set. The uncertainty is large for many entries.
# System: MILI (PIWIL2) piRISC loaded with L1MC piRNA (26 nt)
# Assay: pre-steady-state target cleavage rate (min^-1); MIWI and MILI are mouse PIWI proteins and EfPiwi is from a freshwater sponge; tags in brackets are library labels; higher = faster piRNA-guided slicing of the target
# Conditions: guide: L1MC piRNA 5'p-UAACUAAAUACUAUGCAAGCUGUAGG; auxiliary factor: 500 nM mouse GTSF1
# Method: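 Cleave-'n-Seq: a library of target RNAs (target site embedded in constant flanks, ACAGCATTCCGCGTTAGTGATATCCG... 5' flank; DNA-blocked outside the site) at 0.1 nM was incubated with 1 nM active mouse MILI or MIWI piRISC (synthetic 5'-monophosphorylated piRNA guide) with or without 500 nM mouse GTSF1 at 33 °C for 1 min to 16 h. Uncleaved targets were sequenced and normalised to non-target controls, and the pooled three trials were fitted to a burst-and-steady-state model to give the pre-steady-state cleavage rate (min^-1; k3 is constrained to at most 1e-4). Sequence is the target site only; target names encode pairing extent (gX:gY) and contiguous / 1-mismatch / 2-mismatch / bulge geometry. Fits with R² ≤ 0 are excluded.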
row,Sequence,pre-steady-state target cleavage rate
1,UCCUCCUACAGCUUGCAUUCAAUUUAGUUA,0.00444 ± 0.0046
2,UCCUGGAUGUCGAUGGUUAGUAUUUAGUUA,0.00091 ± 0.011
3,UCCUGGAUGUCGAACGAUAGUAUUUAGUUUA,0.000278 ± 0.025
4,UCCUGGAUGAGCUAGCAUAGUAUAUAGUUA,0.242 ± 0.034
5,UCCUGCUACAGGUUGCAUAGUAUUUUGUUA,0.165 ± 0.028
6,UCCUGCUACAGCUAGCAUAGUAUUUACUUA,0.351 ± 0.051
7,UCCUGGAACAGCAAGCAUAGUAUUUAGUUA,0.275 ± 0.018
8,UCCUGGAUGAGCUUGCAUAGAUUUUAGUAA,0.0025 ± 0.0045
9,UCCUGGAUCACCUUGCAUAGUUUUUAGUUA,0.016 ± 0.0061
10,UCCUGCUACAGCUUGCAUAGAUAUUAGUUA,0.0176 ± 0.0073
11,UCCUGCUACAGCUUGCAUAGUAUUUAGUUU [g2:g25:cont:t1U],0.315 ± 0.022
12,UCCUGCUACAGCUUGCAUAGUAUUUAGUAUA,0.292 ± 0.044
13,UCCUGGAUGUCGUUGCAUAGUUUUUAGUUA,0.00524 ± 0.0046
14,UCCUGGAUGUCCUUGGAUAGUAUUUAGUAA,0.121 ± 0.019

# Same assay, conditions: guide: L1MC piRNA 5'p-UAACUAAAUACUAUGCAAGCUGUAGG; auxiliary factor: none (no GTSF1)
row,Sequence,pre-steady-state target cleavage rate
1,UCCUCCUACAGCUUGCAUUCAAUUUAGUUA,0.00184 ± 0.0036
2,UCCUGGAUGUCGAUGGUUAGUAUUUAGUUA,0.000288 ± 0.019
3,UCCUGGAUCACCUUGCAUAGUAUUUUCAAA,0.00121 ± 0.0056
4,UCCUGGAACAGCAAGCAUAGUAUUUAGUAA,0.00279 ± 0.0033
5,UCCUGGAUGUCGAACGAUAGUAUUUAGUUUA,0.000346 ± 0.016
6,UCCUGGAUGAGCUAGCAUAGUAUAUAGUUA,0.0046 ± 0.0022
7,UCCUGCUACAGGUUGCAUAGUAUUUUGUUA,0.00477 ± 0.0031
8,UCCUGCUACAGCUAGCAUAGUAUUUACUUA,0.00199 ± 0.0044
9,UCCUGGAUGUCGUAGCAUAGUUUUUAGUUA,0.0024 ± 0.0037
10,UCCUGGAACAGCAAGCAUAGUAUUUAGUUA,0.00588 ± 0.0024
11,UCCUGGAUGAGCUUGCAUAGAUUUUAGUAA,0.00178 ± 0.004
12,UCCUGGAUCUCGUUGCAUAGUAUUUAGAAA,0.00189 ± 0.0033
13,UCCUGGAUCACCUUGCAUAGUUUUUAGUUA,0.00336 ± 0.0034
14,UCCUGCUACAGCUUGCAUAGAUAUUAGUUA,0.00186 ± 0.0027
15,UCCUGGAUGUCCUUCCUUAGUAUUUAGUUA,0.00072 ± 0.0075
16,UCCUGGUACAGCUUGCAUAGUAUAAACAAA,0.00104 ± 0.0076
17,UCCUGGAUCAGCUUGGAUAGUAUUUUGUUA,0.00182 ± 0.0041
18,UCCUGCUACAGCUUGCAUAGUAUUUAGUAUA,0.00202 ± 0.0042
19,UCCUGCUACAGCUUGCAUAGUAAAUAGAAA,0.000765 ± 0.0089
20,UCCUGGAUCAGCUUGCAUAGUAUUUAUUA,0.00122 ± 0.005
21,UCCUGGAUGUCGUUGCAUAGUUUUUAGUUA,0.00595 ± 0.0026
22,UCCUGGAACAGCUUGCAUAGAAUUUAGUAA,0.000863 ± 0.0083
23,UCCUGGAUCAGCUUGCUUAGUAUUUAGAUA,0.00237 ± 0.0035
24,UCCUGGAUGUCGUUGCAUAGUAUUUAGAAA,0.000997 ± 0.0058
25,UCCUGGAUGUCCUUGGAUAGUAUUUAGUAA,0.00376 ± 0.0019
26,UCCUGGAACAGCUUGCAUAGAAUAUAGUUA,0.00135 ± 0.0043
